In PubChem BioAssay AID493027 (The Scripps Research Institute Molecular Screening Center, 2011):
Values joined by “and” are separate entries in the source; they are usually repeats but may differ in a detail not shown here. Equal values may be shown once. Among all 2,000 compounds or so, about 45 (2%) were called active.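 Rule for the calls: active = inhibition above the screen-wide mean inhibition plus 3 SD (cut at about 44% in these data); inactive = the rest.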 This is one part of the list.

Amino acid sequences for entries named in this document (tags omitted). A change or cut given only in a name is not applied to a line headed by its entry.
UniProt O60240: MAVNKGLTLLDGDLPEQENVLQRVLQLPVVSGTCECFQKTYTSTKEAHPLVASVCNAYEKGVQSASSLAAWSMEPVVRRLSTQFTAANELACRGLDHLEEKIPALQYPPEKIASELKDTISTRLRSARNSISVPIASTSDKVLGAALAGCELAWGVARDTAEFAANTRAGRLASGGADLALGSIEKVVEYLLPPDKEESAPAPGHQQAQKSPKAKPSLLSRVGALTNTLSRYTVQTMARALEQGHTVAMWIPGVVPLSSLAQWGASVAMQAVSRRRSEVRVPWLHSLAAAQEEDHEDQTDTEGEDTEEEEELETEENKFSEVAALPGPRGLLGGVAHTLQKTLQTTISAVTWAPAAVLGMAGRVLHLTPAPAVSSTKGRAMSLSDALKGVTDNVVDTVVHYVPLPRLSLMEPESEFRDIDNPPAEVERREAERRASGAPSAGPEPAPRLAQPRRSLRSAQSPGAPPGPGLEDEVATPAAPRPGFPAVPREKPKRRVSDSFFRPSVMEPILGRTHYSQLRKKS
UniProt Q8WTS1: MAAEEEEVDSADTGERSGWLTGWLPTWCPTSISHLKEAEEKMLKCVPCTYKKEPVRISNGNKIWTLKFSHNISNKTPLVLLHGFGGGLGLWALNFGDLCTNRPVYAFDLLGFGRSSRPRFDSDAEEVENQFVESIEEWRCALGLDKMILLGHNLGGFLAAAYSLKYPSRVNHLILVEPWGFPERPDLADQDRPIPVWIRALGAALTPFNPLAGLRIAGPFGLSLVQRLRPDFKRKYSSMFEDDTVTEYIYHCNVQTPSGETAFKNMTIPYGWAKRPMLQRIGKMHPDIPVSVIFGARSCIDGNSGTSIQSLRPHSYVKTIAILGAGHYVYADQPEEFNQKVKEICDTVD

target: Perilipin-1 (Homo sapiens) + 1-acylglycerol-3-phosphate O-acyltransferase ABHD5 (Homo sapiens) (UniProt O60240+Q8WTS1); assay: ABHD5-PLIN1 interaction inhibitors, pilot screen, cell lysate, split luciferase complementation, luminescence, NIH validation set (AID 493027);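 note: 0% = DMSO wells with the 100% control not disclosed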; conditions: split G. princeps luciferase complementation, 4 h; at 7.9 µM, stronger effect = higher value

Row | Structure (SMILES) | inhibition
1 | Cc1nonc1CN(C)C(=O)c1ccc(OC2CCN(C(=O)c3cccnc3)CC2)cc1 | inactive: -0.91%
2 | NCCc1ccc(O)c(O)c1 | inactive: -5.35%
3 | CC(C)(C)c1ccc(/C=C/C(=O)N2CCCCC2)cc1 | inactive: -10.4%
4 | OC(CCN1CCCC1)(c1ccccc1)C1CCCCC1 (configuration not stated) | inactive: -11.5%
5 | COCCNC(=O)CSc1ccc(Cl)cc1 | inactive: -15.8%
6 | C[C@H](NC(=O)C1(c2ccccc2)CCN(C(=O)[C@H]2CSCN2C(=O)OC(C)(C)C)CC1)C(=O)O | inactive: 4.07%
7 | COc1cc(CO)ccc1OCc1nnnn1-c1ccc(C)cc1 | inactive: -1.79%
8 | CCCCOc1ccc(C(=O)CCN2CCCCC2)cc1 | inactive: 38.6%
9 | NS(=O)(=O)c1cc2c(cc1Cl)NC(C1C[C@H]3C=C[C@@H]1C3)NS2(=O)=O (some centres not stated) | inactive: 0.4%
10 | S=C(NCCOCCOCCNC(=S)Nc1ccccc1)Nc1ccccc1 | inactive: 2.22%
11 | Nc1[nH]c(=O)ncc1F | inactive: -1.49%
12 | CC(C)(C)OC(=O)N1CC(O)CC1C(=O)OCC(=O)c1ccc(Cl)cc1 (configuration not stated) | inactive: -9.04%
13 | COc1ccc(/C=C\C(=O)c2c(O)ccc3c(C)cc(=O)oc23)cc1OC | active: 62.7%
14 | CCOC(=O)c1oc2cc(OCC(N)=O)ccc2c(=O)c1-c1ccc(OC)c(OC)c1 | inactive: -4.45%
15 | CN(C)CCOC(=O)C(c1ccccc1)C1(O)CCCC1 (configuration not stated) | inactive: -5.23%
16 | C[C@]12CCC3C(CC=C4C[C@@H](O)CC[C@@]43C)C1CCC2[C@]1(C)CCC(=O)O1 (some centres not stated) | inactive: 0.59%
17 | O=C(O)c1ccccc1Nc1cccc(C(F)(F)F)c1 | inactive: 2.97%
18 | O=C(NCCc1nc2ccccc2[nH]1)c1cccc(Br)c1 | inactive: -5.23%
19 | Cc1ccc2c(c1)c(C)cc(=O)n2CCC(=O)O | inactive: -12.7%
20 | CC(C)(C)NCC(O)COc1ccccc1C(=O)CCc1ccccc1 (configuration not stated) | inactive: -1.21%
21 | Nc1ccc(C(=O)O)c(O)c1 | inactive: -8.33% and inactive: -9.23%
22 | N=c1nc(N2CCCCC2)cc(N)n1O | inactive: 0.09%
23 | CC(=O)Oc1ccc(C(c2ccc(OC(C)=O)cc2)c2ccccn2)cc1 | inactive: 8.99%
24 | COc1ccc(C2OC[C@H]3O[C@H](O)[C@H](NC(C)=O)[C@@H](O)[C@@H]3O2)cc1 (some centres not stated) | inactive: -8.14%
25 | O=[N+]([O-])c1ccc(O)c2ncccc12 | inactive: -11.9%
26 | Cc1ccc(/C=N/NC(=O)C2(C)CC2(Br)Br)cc1 (configuration not stated) | inactive: 3.56%
27 | CC(NCCc1ccc(O)cc1)C(O)c1ccc(O)cc1 (configuration not stated) | inactive: -2.57%

A second format for some results above.
Row,Structure (SMILES),inhibition
8,CCCCOc1ccc(C(=O)CCN2CCCCC2)cc1,inactive: 38.6%
9,NS(=O)(=O)c1cc2c(cc1Cl)NC(C1C[C@H]3C=C[C@@H]1C3)NS2(=O)=O (some centres not stated),inactive: 0.4%
10,S=C(NCCOCCOCCNC(=S)Nc1ccccc1)Nc1ccccc1,inactive: 2.22%
11,Nc1[nH]c(=O)ncc1F,inactive: -1.49%
12,CC(C)(C)OC(=O)N1CC(O)CC1C(=O)OCC(=O)c1ccc(Cl)cc1 (configuration not stated),inactive: -9.04%
13,COc1ccc(/C=C\C(=O)c2c(O)ccc3c(C)cc(=O)oc23)cc1OC,active: 62.7%
14,CCOC(=O)c1oc2cc(OCC(N)=O)ccc2c(=O)c1-c1ccc(OC)c(OC)c1,inactive: -4.45%
15,CN(C)CCOC(=O)C(c1ccccc1)C1(O)CCCC1 (configuration not stated),inactive: -5.23%
